Assay results taken from publication PMC9688530, “Development of Ic-ELISA and Colloidal Gold Lateral Flow Immunoassay for the Determination of Cypermethrin in Agricultural Samples” (Biosensors, 2022).

Experiments:
[1] = recovery in spiked samples by ic-ELISA; settings: for Test Value ±SD: n = 3
[2] = spiked samples by LFIA
[3] = Romaine Lettuce, spiked 0.1 μg/g
[4] = Romaine Lettuce, spiked 0.2 μg/g
[5] = Romaine Lettuce, spiked 0.4 μg/g

For `CC1(C)C(C=C(Cl)Cl)C1C(=O)OC(C#N)c1cccc(Oc2ccccc2)c1` (stereo not drawn) [CYP, Cypermethrin], the Recovery ([1]; Cabbage, spiked 0.1 μg/g) was 78.8%, the “Test Value ±SD” value ([1]; Cabbage, spiked 0.1 μg/g) was 78.8 ± 1.0 ng/g and the Recovery ([1]; Cabbage, spiked 0.2 μg/g) was 80.3%. The “Test Value ±SD” value ([1]; Cabbage, spiked 0.2 μg/g) was 160.6 ± 5.2 ng/g, the Recovery ([1]; Cabbage, spiked 0.4 μg/g) was 87.3% and the “Test Value ±SD” value ([1]; Cabbage, spiked 0.4 μg/g) was 349.2 ± 1.4 ng/g. The Recovery [1, 3] was 81.5%, the “Test Value ±SD” value [1, 3] was 81.5 ± 3.8 ng/g and the Recovery [1, 4] was 85.2%. For the same molecule, the “Test Value ±SD” value [1, 4] was 170.4 ± 3.8 ng/g, the Recovery [1, 5] was 87.6% and the “Test Value ±SD” value [1, 5] was 350.4 ± 13.2 ng/g. For the same molecule, the Recovery ([1]; Tomato, spiked 0.1 μg/g) was 81.4%, the “Test Value ±SD” value ([1]; Tomato, spiked 0.1 μg/g) was 81.4 ± 1.8 ng/g and the Recovery ([1]; Tomato, spiked 0.2 μg/g) was 80.9%. The “Test Value ±SD” value ([1]; Tomato, spiked 0.2 μg/g) was 161.8 ± 4.9 ng/g, the Recovery ([1]; Tomato, spiked 0.4 μg/g) was 82.6% and the “Test Value ±SD” value ([1]; Tomato, spiked 0.4 μg/g) was 330.4 ± 12.1 ng/g. The limit of quantification ([2]; cabbage) was 1.5 µg/g, the limit of quantification ([2]; romaine lettuce) was 3 µg/g and the limit of quantification ([2]; tomato) was 1.5 µg/g.
